About 22,000 (6.9%) of roughly 320,000 compounds were called active. Inconclusive results, whose numbers are uncertain, are shown with a selection of clear calls. The call rests on the fitted dose curve; in most records, active means well fitted inhibition curve with a large enough effect; inconclusive means small, poorly fitted or top-dose-only effect, or another doubt; inactive means no such curve, though single readings can be large or run the other way. Potencies beside an inconclusive call are fits to weak or partial responses and may not hold up.
assay: Primary qHTS for delayed death inhibitors of the malarial parasite plastid, 96 hour incubation; conditions: P. falciparum luciferase reporter growth; series mostly up to 28.7 µM; activity change, negative = inhibition: at the top concentration
Procedure, shortened: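 Erythrocytes infected with luciferase-expressing P. falciparum were dispensed at 2% hematocrit and 0.05% parasitemia (final), then incubated with compounds 96 hours at 37 C in 5% CO2. Luminescence after detection reagent addition reported growth.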
On the % scale 0 is the no-effect control and ±100 the full control effect; potency means the concentration at half of the fitted maximal effect.

Structure (SMILES) | Potency | activity change, negative = inhibition
Cc1ccccc1-n1nc(C)c2cc(C(=O)N3CCOCC3)sc21 | active: 3.29 µM | –
COc1ccc(C(=O)N/N=C(\c2ccccc2)c2ccccn2)cc1 | active: 3.7 µM | –
CCN1CCN(c2cc(C)c3cc(NC(=S)NCCN(C)C)ccc3n2)CC1 | – | inactive: 70%
Cn1c(CCN2CCN(c3ccccn3)CC2)nc2cc(NC(=O)COc3ccc([N+](=O)[O-])cc3)ccc21 | inconclusive: 2.33 µM [inhibitor, single point] | –
CCN(CCO)C(=O)c1ccc2oc(Cc3ccc(Cl)cc3)nc2c1 | inconclusive: 11.7 µM [inhibitor, single point] | –
O=C1Nc2ccc(S(=O)(=O)N(CCO)CCO)c3cccc1c23 | inconclusive: 13.1 µM [inhibitor, single point] | –
CCN1CCN(c2nc3c(C)cccn3c(=O)c2/C=C(\C#N)S(=O)(=O)c2ccc(Cl)cc2)CC1 | – | inactive: 12.7%
CC(C)(C)Nc1nc(SCC(=O)Nc2ccccc2)nc(N2CCOCC2)n1 | inconclusive: 10.4 µM [inhibitor, partial curve, poor fit] | –
Cc1ccc(S(=O)(=O)N/N=C/c2cc([N+](=O)[O-])ccc2O)cc1[N+](=O)[O-] | inconclusive: 0.233 µM [inhibitor, full curve, poor fit] | –
O=C(NCC1(c2ccccc2)CCCC1)c1ccccc1Br | inconclusive: 0.0165 µM [inhibitor, full curve] | –
Cn1cc(C(=O)N2CCCCCC2)c(=O)c2cc(S(=O)(=O)N3CCCCC3)ccc21 | inconclusive: 14.7 µM [inhibitor, single point] | –
O=C(Nc1ccccc1)c1ccsc1 | – | inactive: 28.8%
O=C(NC(CO)(CO)CO)c1coc(=O)c(Br)c1 | inconclusive: 7.38 µM [inhibitor, partial curve, poor fit] | –
CC1(C)CC(=NNC(=O)c2n[nH]c3c2CCC3)CC(C)(C)N1 | inconclusive: 6.57 µM [inhibitor, partial curve, poor fit] | –
Cc1ccc(Nc2ncc3c(n2)CC(C)(C)CC3=O)cc1 | – | inactive: 2.22%
Cc1cc(NC(=O)CSc2nc3ccccc3c(=O)n2Cc2ccc(F)cc2)no1 | active: 11.7 µM | –
O=c1ccc(Oc2nc(N3CCCCC3)nc(N3CCCCC3)n2)n[nH]1 | active: 3.7 µM | –
Cc1csc(SC(C)C(=O)NCC(=O)Nc2ccc(F)c(F)c2F)n1 (centres undefined) | inconclusive: 1.47 µM [inhibitor, full curve, poor fit] | –
O=[N+]([O-])c1ccc2ncnc(N3CCN(Cc4ccc5c(c4)OCO5)CC3)c2c1 | inconclusive: 9.28 µM [inhibitor, partial curve, poor fit] | –
COCc1cc(C)nc2sc(C(=O)Nc3ccccc3F)c(N)c12 | inconclusive: 4.65 µM [inhibitor, partial curve, poor fit] | –
CCOc1ccc(CCNc2nc3c(c(=O)n(C)c(=O)n3C)n2CC)cc1OCC | – | inactive: -9.32%
O=C(Nc1cccc(F)c1)N1CCN(C(=O)c2ccco2)CC1 | – | inactive: -24%

Structure (SMILES) | Potency | activity change, negative = inhibition
CCOc1ccc(OCC)c(S(=O)(=O)NC2CC(C)(C)NC(C)(C)C2)c1 | – | inactive: 0.43%
Oc1ccc(/C=N/Nc2nccnc2Cl)c(O)c1 | inconclusive: 1.65 µM [inhibitor, full curve, poor fit] | –
COCCNCC(=O)N1c2ccccc2Sc2ccccc21 | inconclusive: 18.5 µM [inhibitor, single point] | –
Cc1ccc(C)c(NC(=S)NC(C)C(c2cccs2)N2CCOCC2)c1 (centres undefined) | inconclusive: 3.7 µM [inhibitor, partial curve, poor fit] | –
COCC(=O)N1CCCC(C(=O)c2ccc(-c3ccccc3)cc2)C1 (centres undefined) | – | inactive: -6.47%
CCCCn1c2c(c(=N)c3ccccc31)CCC2 | inconclusive: 0.0928 µM [inhibitor, full curve, poor fit] | –
CCOC(=O)c1sc(NC(=O)CSc2ncccn2)nc1C | active: 13.1 µM | –
COc1ccc(C(=O)Nc2cc(C(F)(F)F)ccc2-n2cncn2)cc1 | inconclusive: 6.57 µM [inhibitor, partial curve, poor fit] | –
Cc1sc(NC(=O)Cn2cnnn2)nc1-c1ccc(Cl)cc1 | – | inactive: 40.5%
O=C(c1ccccc1)N(Cc1cccnc1)C1(C(=O)Nc2ccccc2)CCCCC1 | inconclusive: 11.7 µM [inhibitor, single point] | –
COc1ccc(CCNC(=O)C2CC(=O)N(CCc3ccc(C)cc3)C2)cc1OC (centres undefined) | – | inactive: 0%
COc1ccccc1-c1c(C)nn2c(C)cc(C)nc12 | active: 13.1 µM | –
COC(=O)c1ccccc1NC(=O)N1c2ccccc2Sc2ccccc21 | inconclusive: 13.1 µM [inhibitor, partial curve, poor fit] | –
COC(=O)c1cc(-c2c(-c3ccc4c(c3)OCO4)noc2-c2ccsc2)cc([N+](=O)[O-])c1 | inconclusive: 18.5 µM [inhibitor, single point] | –
C#CCOCCOCCOCCNc1nc(N2CCN(C(=O)[C@H]([C@@H](C)CC)n3cc([C@@H](N)Cc4ccc(O)cc4)nn3)CC2)nc(N2CCN(C(=O)[C@H](Cc3cc4ccccc4[nH]3)n3cc([C@@H](N)C(C)CC)nn3)CC2)n1 (some centres undefined) | active: 11.7 µM | –
O=C(c1ccc([N+](=O)[O-])cc1)N(c1ccccn1)c1ccccn1 | – | inactive: -16.1%
CN(c1ccccc1)S(=O)(=O)c1cccc(NC(=O)Cn2cnc3c2c(=O)n(C)c(=O)n3C)c1 | inconclusive: 18.5 µM [inhibitor, single point] | –
Cc1ccc(NC(=O)C2(S(=O)(=O)c3ccc(Cl)cc3)CC2)c(Br)c1 | inconclusive: 4.15 µM [inhibitor, partial curve] | –
COc1ccc(-c2noc(N3CCC(C(=O)Nc4ccccc4OC)CC3)n2)cc1 | – | inactive: 3.27%
O=C(O)COc1ccc(/C=C/C(=O)c2ccc3ccccc3c2)cc1 | inconclusive: 18.5 µM [inhibitor, single point] | –
COc1ccc2nc(N3C(=O)CC(C(C)c4ccccc4)C3=O)sc2c1 (centres undefined) | active: 3.7 µM | –
CCOC(=O)Cc1csc(NC(=O)Cc2ccccc2[N+](=O)[O-])n1 | inconclusive: 18.5 µM [inhibitor, single point] | –

2 compounds picked at random from those above:
Structure (SMILES) | Potency | activity change, negative = inhibition
COc1ccc(C(=O)Nc2cc(C(F)(F)F)ccc2-n2cncn2)cc1 | inconclusive: 6.57 µM [inhibitor, partial curve, poor fit] | –
C#CCOCCOCCOCCNc1nc(N2CCN(C(=O)[C@H]([C@@H](C)CC)n3cc([C@@H](N)Cc4ccc(O)cc4)nn3)CC2)nc(N2CCN(C(=O)[C@H](Cc3cc4ccccc4[nH]3)n3cc([C@@H](N)C(C)CC)nn3)CC2)n1 (some centres undefined) | active: 11.7 µM | –

From PubChem BioAssay AID504834 (National Center for Advancing Translational Sciences (NCATS), 2011)
